Assay: Identification and label-free relative LC-MS quantitation of HLA-presented peptides on tumor and normal tissue samples (XPRESIDENT presentation profiles)
Parameters: species or system human
Settings: for Additional entities of particular interest (presentation of selected peptides across entities): tumor entities on which the HLA-presented peptide was found, entity abbreviations defined in the title of Table 4B; for Entities of particular interest: entities where the peptide was over-presented on cancer samples compared to normal tissues
[1] = FIG. 1E-J and 7A-C, analyses of more than 320 normal tissue samples and 462 cancer samples

180 (RLYEEEIRI; listed as Homo sapiens) [compound 180]
Additional entities of particular interest (presentation of selected peptides across entities): NSCLC

98 (FVQEKIPEL; listed as Homo sapiens) [compound 98]
Entities of particular interest: GC, CRC | Additional entities of particular interest (presentation of selected peptides across entities): GBC_CCC

215 (QIADIVTSV; listed as Homo sapiens) [compound 215]
Additional entities of particular interest (presentation of selected peptides across entities): HCC

SEQ ID NO.: 152: peptide found in CXCR5 (gene looked up) (ILVTSIFFL; listed as Homo sapiens)
cancer tissues where the peptide was found to be presented [1]: 16 | normal tissues where the peptide was found to be presented [1]: 6

229 (YLYELEHAL; listed as Homo sapiens) [compound 229]
Entities of particular interest: NSCLC, OC

130 (QLYGSAITL; listed as Homo sapiens) [compound 130]
Additional entities of particular interest (presentation of selected peptides across entities): HCC

46 (ISLDEVAVSL; listed as Homo sapiens) [compound 46]
Entities of particular interest: GB, NSCLC, HCC, OC | Additional entities of particular interest (presentation of selected peptides across entities): BRCA

260 (ALNESLVEC; listed as Homo sapiens) [compound 260]
Entities of particular interest: NSCLC, MEL, OSCAR, OC | Additional entities of particular interest (presentation of selected peptides across entities): SCLC, UBC, UTC, CRC, AML, NHL

272 (FVMEGEPPKL; listed as Homo sapiens) [compound 272]
Entities of particular interest: NSCLC, OC | Additional entities of particular interest (presentation of selected peptides across entities): CLL, UTC

176 (VQSGLRILL; listed as Homo sapiens) [compound 176]
Entities of particular interest: NSCLC, OSCAR

144 (FLISQTPLL; listed as Homo sapiens) [compound 144]
Additional entities of particular interest (presentation of selected peptides across entities): NSCLC, SCLC, UBC

7 (ALLQALMEL; listed as Homo sapiens) [compound 7]
Entities of particular interest: GC, NSCLC, RCC, CRC, PC | Additional entities of particular interest (presentation of selected peptides across entities): CLL, OSCAR, OC, SCLC, UTC, BRCA, GBC_CCC, MEL, AML, NHL

63 (KLLPMVIQL; listed as Homo sapiens) [compound 63]
Entities of particular interest: NSCLC, PC

16 (SLADLSLLL; listed as Homo sapiens) [compound 16]
Entities of particular interest: NSCLC, HCC, PC | Additional entities of particular interest (presentation of selected peptides across entities): GB, GC, BPH, CLL, OSCAR, OC, SCLC, UBC, UTC, BRCA, GBC_CCC, MEL, RCC, CRC, AML, NHL

28 (IKVTDPQLLEL; listed as Homo sapiens) [compound 28]
Additional entities of particular interest (presentation of selected peptides across entities): NSCLC, MEL

233 (SLFESLEYL; listed as Homo sapiens) [compound 233]
Entities of particular interest: NSCLC, OSCAR, OC | Additional entities of particular interest (presentation of selected peptides across entities): UTC, RCC

12 (RLLDPKTIFL; listed as Homo sapiens) [compound 12]
Entities of particular interest: NSCLC, RCC

179 (TLGEIIKGV; listed as Homo sapiens) [compound 179]
Additional entities of particular interest (presentation of selected peptides across entities): NSCLC

191 (AAIEIFEKV; listed as Homo sapiens) [compound 191]
Entities of particular interest: NSCLC, OSCAR, OC

27 (GLLGKVTSV; listed as Homo sapiens) [compound 27]
Entities of particular interest: NSCLC, BRCA | Additional entities of particular interest (presentation of selected peptides across entities): SCLC, UBC

280 (HLWGHALFL; listed as Homo sapiens) [compound 280]
Additional entities of particular interest (presentation of selected peptides across entities): HCC

288 (SLYKGLLSV; listed as Homo sapiens) [compound 288]
Entities of particular interest: GB, NSCLC, HCC, BPH, OC, RCC, CRC, PC, OSCAR

61 (ALYPKEITL; listed as Homo sapiens) [compound 61]
Entities of particular interest: NSCLC, CRC

196 (TLHQWIYYL; listed as Homo sapiens) [compound 196]
Additional entities of particular interest (presentation of selected peptides across entities): CRC

244 (NVAEIVIHI; listed as Homo sapiens) [compound 244]
Entities of particular interest: GC, NSCLC

231 (LLDDIFIRL; listed as Homo sapiens) [compound 231]
Additional entities of particular interest (presentation of selected peptides across entities): MEL

217 (LLWPSSVPA; listed as Homo sapiens) [compound 217]
Additional entities of particular interest (presentation of selected peptides across entities): GB, MEL, AML

283 (ALSELLQQV; listed as Homo sapiens) [compound 283]
Additional entities of particular interest (presentation of selected peptides across entities): NSCLC, HCC, OC, SCLC, UTC, MEL, CRC, AML, NHL

194 (KLLEEVQLL; listed as Homo sapiens) [compound 194]
Additional entities of particular interest (presentation of selected peptides across entities): NSCLC

284 (KLMDPGSLPPL; listed as Homo sapiens) [compound 284]
Entities of particular interest: NSCLC, OC

200 (IMPTFDLTKV; listed as Homo sapiens) [compound 200]
Additional entities of particular interest (presentation of selected peptides across entities): HCC

13 (RLHDENILL; listed as Homo sapiens) [compound 13]
Entities of particular interest: GB, GC, NSCLC, HCC, BPH, OC, RCC, CRC, PC, OSCAR | Additional entities of particular interest (presentation of selected peptides across entities): SCLC, UBC, UTC, BRCA, MEL, AML, NHL

183 (ALSYILPYL; listed as Homo sapiens) [compound 183]
Additional entities of particular interest (presentation of selected peptides across entities): NSCLC, SCLC, UTC, BRCA, CRC, AML, NHL

142 (LLDAAHASI; listed as Homo sapiens) [compound 142]
Additional entities of particular interest (presentation of selected peptides across entities): NSCLC

225 (FLPQPVPLSV; listed as Homo sapiens) [compound 225]
Additional entities of particular interest (presentation of selected peptides across entities): CLL, MEL, NHL

162 (GLLGNLLTSL; listed as Homo sapiens) [compound 162]
Additional entities of particular interest (presentation of selected peptides across entities): NSCLC

101 (SLLEVNEASSV; listed as Homo sapiens) [compound 101]
Entities of particular interest: GC, CLL | Additional entities of particular interest (presentation of selected peptides across entities): NHL

124 (ALLLRLFTI; listed as Homo sapiens) [compound 124]
Additional entities of particular interest (presentation of selected peptides across entities): NSCLC

237 (ALLEQTGDMSL; listed as Homo sapiens) [compound 237]
Entities of particular interest: NSCLC, OC, MEL, CRC | Additional entities of particular interest (presentation of selected peptides across entities): SCLC, UBC, BRCA, AML, NHL

118 (IAYNPNGNAL; listed as Homo sapiens) [compound 118]
Additional entities of particular interest (presentation of selected peptides across entities): NSCLC, CLL, AML

140 (FLDSQITTV; listed as Homo sapiens) [compound 140]
Additional entities of particular interest (presentation of selected peptides across entities): MEL

64 (SLYAGSNNQV; listed as Homo sapiens) [compound 64]
Additional entities of particular interest (presentation of selected peptides across entities): NSCLC

211 (LLTTVLINA; listed as Homo sapiens) [compound 211]
Additional entities of particular interest (presentation of selected peptides across entities): RCC

128 (SILTNISEV; listed as Homo sapiens) [compound 128]
Additional entities of particular interest (presentation of selected peptides across entities): NSCLC

222 (LLTGVFAQL; listed as Homo sapiens) [compound 222]
Additional entities of particular interest (presentation of selected peptides across entities): CLL, UTC, BRCA, CRC, NHL

116 (ALLSSVAEA; listed as Homo sapiens) [compound 116]
Entities of particular interest: NSCLC, OSCAR, OC | Additional entities of particular interest (presentation of selected peptides across entities): SCLC, BRCA, CRC

265 (FLLDKPQDLSI; listed as Homo sapiens) [compound 265]
Entities of particular interest: NSCLC, OC, RCC | Additional entities of particular interest (presentation of selected peptides across entities): GBC_CCC

137 (KLIYKDLVSV; listed as Homo sapiens) [compound 137]
Entities of particular interest: NSCLC, OC, PC

195 (VIIQNLPAL; listed as Homo sapiens) [compound 195]
Additional entities of particular interest (presentation of selected peptides across entities): CRC

164 (MLIIRVPSV; listed as Homo sapiens) [compound 164]
Additional entities of particular interest (presentation of selected peptides across entities): NSCLC

69 (LKVLKADVVL; listed as Homo sapiens) [compound 69]
Entities of particular interest: GC, NSCLC

38 (VLQQESNFL; listed as Homo sapiens) [compound 38]
Additional entities of particular interest (presentation of selected peptides across entities): AML

165 (SLLDYEVSI; listed as Homo sapiens) [compound 165]
Entities of particular interest: NSCLC, OSCAR, OC | Additional entities of particular interest (presentation of selected peptides across entities): GBC_CCC

170 (FIAAVVEKV; listed as Homo sapiens) [compound 170]
Entities of particular interest: NSCLC, OC | Additional entities of particular interest (presentation of selected peptides across entities): SCLC, NHL

82 (ILAEEPIYIRV; listed as Homo sapiens) [compound 82]
Entities of particular interest: NSCLC, PC, OSCAR, OC

74 (GLAFLPASV; listed as Homo sapiens) [compound 74]
Entities of particular interest: GC, CRC

78 (LFQSRIAGV; listed as Homo sapiens) [compound 78]
Additional entities of particular interest (presentation of selected peptides across entities): BPH

174 (ALYSGDLHAA; listed as Homo sapiens) [compound 174]
Additional entities of particular interest (presentation of selected peptides across entities): HCC

261 (GLAALAVHL; listed as Homo sapiens) [compound 261]
Entities of particular interest: NSCLC, OC, MEL, CRC, PC, OSCAR | Additional entities of particular interest (presentation of selected peptides across entities): GC, CLL, SCLC, UBC, UTC, BRCA, GBC_CCC, AML, NHL

97 (KLFEKSTGL; listed as Homo sapiens) [compound 97]
Entities of particular interest: NSCLC, CRC

96 (ALDTTRHEL; listed as Homo sapiens) [compound 96]
Entities of particular interest: NSCLC, PC | Additional entities of particular interest (presentation of selected peptides across entities): OSCAR, UBC, UTC

47 (GLNGFNVLL; listed as Homo sapiens) [compound 47]
Entities of particular interest: PC, OSCAR | Additional entities of particular interest (presentation of selected peptides across entities): SCLC, UTC, GBC_CCC, MEL, CRC, AML, NHL

— patent US20160279215A1, “NOVEL PEPTIDES AND COMBINATION OF PEPTIDES FOR USE IN IMMUNOTHERAPY AGAINST VARIOUS TUMORS” (immatics biotechnologies GmbH, priority 2015, published 2016)
